Results are given in words; binding and its absence hold for the method and conditions named. Some binding calls cover weakened binding; strength is not graded here.

Assay [1] has as its target T1, BA46 antigen of the human milk fat globule (HMFG) (human) (UniProt Q08431).
T1 sequence (looked up): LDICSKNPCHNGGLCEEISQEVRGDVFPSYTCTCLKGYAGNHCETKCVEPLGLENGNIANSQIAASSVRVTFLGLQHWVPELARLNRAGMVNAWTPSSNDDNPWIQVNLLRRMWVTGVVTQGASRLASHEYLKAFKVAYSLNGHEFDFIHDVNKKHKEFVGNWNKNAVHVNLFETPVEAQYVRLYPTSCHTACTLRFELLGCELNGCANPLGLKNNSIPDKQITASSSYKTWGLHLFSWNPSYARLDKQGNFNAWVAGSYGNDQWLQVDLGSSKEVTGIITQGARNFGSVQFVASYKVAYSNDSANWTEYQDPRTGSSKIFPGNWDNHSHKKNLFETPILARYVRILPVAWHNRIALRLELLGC
Kind of assay: supernatants assayed on a plate-bound HMFG preparation.

Assay [2] has as its target T1, BA46 antigen of the human milk fat globule (HMFG) (human). In words: competition RIA on plate-bound HMFG; competitor 125I-Mc3.

B1: murine-human chimeric Mc3 antibody (ChMc3) (antibody, V domains shown)
VH: EVQLQQSGPELVKPGASMKISCEASGYSFTGYTMHWVKQSHGMNLEWIGLINPYNGGTVYNQKFQDKATLTVDKSSGTAYMELLSLTSEDSAVYFCARRWRYTMDYWGQGTSVTVSS
VL: DIVMTQSHKFMSTSEGDWVSITCKASQDVSIGVAWYQQKPGQSPKLLIYSASSRYTGVPDRFSGSGSGTDFTFTISSVQAEDLAVYYCQQHYTSPFTFGSGTNLEIK
notes: also called Chimeric antibody
Turning to B1, the binding result in assay [1] and in assay [2] was “binds” each time.

For the origin of these results see patent US7390635 (CANCER RESEARCH INSTITUTE OF CONTRA COSTA, dated 2008).
